This test can be described thus: qHTS Assay for Lipid Storage Modulators in Drosophila S3 Cells.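 On cell number change: cells counted by Cell Tracker Red CMTPX staining in the red channel.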 The conditions noted are these: BODIPY lipid droplet fluorescence, 18-24 h; for cell number change: measured here: cell count max response, cells fed with added oleic acid. The procedure, abridged: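 Drosophila S3 cells got compounds at several concentrations plus oleic acid (400 uM solution). Laser-scanning cytometry with 488 nm excitation read lipid droplets at 500-530 nm and cells at 575-640 nm. Percent activity was relative to 20 uM Triacsin C.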

Where [1] appears, read: measured here: cell number channel AC50, cells fed with added oleic acid.
The mark [2] stands for this setting: measured here: lipid fluorescence (Fed channel) AC50, cells fed with added oleic acid.

Some of the results follow. Shown are side measurements of this screen, not its main read-out; they come without a call. The list favours compounds with an active or inconclusive main result. Potencies come from curve fits of mixed quality, noted in brackets.

What is called AC50 is the concentration giving half of the maximal activity seen. Read a high AC50 as weaker potency.

As to `Cc1ccc(C2CC(c3cccs3)=NN2C(=O)CSc2nc(=O)n3cc(C)ccc3n2)cc1` (stereo unspecified), the cell number change is -21.3%.
For the compound `Cc1cccc(C)c1NC(=O)COC(=O)c1ccc([N+](=O)[O-])o1`, the AC50 reads like this: under setting [1], 0.00461 µM [rising, full curve, poor fit]; under setting [2], 0.00461 µM [rising, full curve, poor fit].
In the case of `CC(C)CNC(=O)c1noc2c1CCCC2`, the cell number change was -7.95%. Further, the AC50 under setting [2] is 6.51 µM [falling, single point].
Take `CCOC(=O)Cc1csc(NC(=O)c2ccc(N3CCOCC3)cc2[N+](=O)[O-])n1`: the cell number change was determined as 5.83%. The AC50 under setting [1] is 6.51 µM [rising, single point]. Also, under setting [2], the concentration at half-maximal activity (AC50) is 2.91 µM [rising, partial curve].
In the case of `Cc1ccc(CCNC(=O)c2sc3nc4n(c(=O)c3c2C)CCC4)cc1`, the cell number change is -2.39%. In addition, the AC50 under setting [2] is 29.1 µM [falling, single point].
Turning to `COc1ccc(Cl)cc1C(=O)OCC(=O)Nc1cccnc1Cl`, the cell number change was -13.1%.
Consider `O=C(OCC(=O)N1CCc2ccccc21)c1nc(Cl)ccc1Cl`, for which the cell number change was 34.3%. Further, the AC50 under setting [2] was 18.4 µM [rising, single point].
Take `CCOCCOCN(C#N)c1nc(OC)nc(N(C)C)n1`: the cell number change is 12.6%. Besides, under setting [2], the concentration at half-maximal activity (AC50) was 7.31 µM [rising, partial curve].
Consider `NC(=O)C1CC(O)CN1c1nc(CN2CCOCC2)nc2scc(-c3ccccc3)c12` (stereo unspecified), for which the cell number change is -3.16%. For the same compound, under setting [2], the concentration at half-maximal activity (AC50) is 0.164 µM [falling, full curve, poor fit].
With `O=C(CCNC(=O)c1ccccc1Cl)Nc1cccc(S(=O)(=O)N2CCCC2)c1`, the cell number change stood at 8.97%.
For the compound `CCCc1nnc(NC(=O)C2CCN(C(=O)c3ccco3)CC2)s1`, the concentration at half-maximal activity (AC50) under setting [1] was 0.00461 µM [rising, full curve, poor fit].
On to `Cc1ncsc1CCOC(=O)c1ccccc1`, for which the half-maximal activity concentration (AC50) under setting [1] is 0.082 µM [rising, single point] and the AC50 under setting [2] is 0.116 µM [rising, single point].
As to `CCOC(=O)c1nn(-c2ccc(C)cc2)c(=O)cc1OCC(=O)Nc1cccc(OC)c1`, the AC50 under setting [1] was 4.61 µM [rising, partial curve].
Regarding `CCN1C(=O)[C@H]2[C@@H](c3ccc(OC)cc3)N3C(=O)CN(CCOC)C(=O)[C@@]3(C)[C@H]2C1=O`, the cell number change is 12%. The half-maximal activity concentration (AC50) under setting [2] is 29.1 µM [rising, single point].
Consider `CC(C(=O)NC1=NCCS1)(C(F)(F)F)C(F)(F)F`, for which the cell number change came out at 17.3%.
For the compound `COc1ccc(N(CC(=O)NCCOc2ccccc2)S(=O)(=O)c2ccc(C)cc2)cc1`, the cell number change was -1.28%. In addition, the AC50 under setting [2] was 0.0082 µM [falling, full curve, poor fit].
Take `N#Cc1cc(-c2ccccc2)[nH]c1-c1nccc2ccccc12`: the cell number change was -5.12%. Under setting [2], the concentration at half-maximal activity (AC50) is 0.651 µM [falling, single point].
Turning to `Cc1cccc(C)c1N1CCN(S(=O)(=O)N2CCOCC2)CC1`, under setting [1], the concentration at half-maximal activity (AC50) is 3.66 µM [rising, single point].
As for `CCCC(c1nnnn1Cc1ccc(OC)cc1)N1CCN(c2ccccc2)CC1` (stereo unspecified), the cell number change was determined as 4.64%. Moreover, the half-maximal activity concentration (AC50) under setting [2] is 6.51 µM [rising, single point].
`CC(C)c1ccc(S(=O)(=O)N2CCN(CC(=O)Nc3ccc4c(c3)OCO4)CC2)cc1`: the cell number change was -16.3%. Further, under setting [2], the concentration at half-maximal activity (AC50) was 0.164 µM [rising, full curve, poor fit].
Consider `O/N=C(\c1ccccc1)C(O)c1ccccc1` (stereo unspecified), for which the cell number change was -21.8%.
Consider `CN(C)S(=O)(=O)c1cccc(C(=O)Nc2n[nH]c(C(F)(F)F)n2)c1`, for which the cell number change worked out at 38.5%. Under setting [1], the half-maximal activity concentration (AC50) is 29.1 µM [rising, single point]. For the same compound, under setting [2], the half-maximal activity concentration (AC50) was 0.0058 µM [rising, full curve, poor fit].
`O=C(NCCC(=O)N1CCN(c2ccc(F)cc2)CC1)c1ccco1`: the cell number change stood at 17.3%.
As to `COCCn1c(SCC(=O)Nc2cccnc2Cl)nc2ccccc2c1=O`, the cell number change came to 31.1%. In addition, the AC50 under setting [1] was 0.00731 µM [rising, full curve, poor fit].
With `Cc1noc(C)c1-c1ccc2ncnc(NC(C)c3ccco3)c2c1` (stereo unspecified), the cell number change is -4.2%. In addition, the AC50 under setting [1] is 0.326 µM [falling, partial curve]. Besides, under setting [2], the AC50 is 0.517 µM [falling, partial curve].
Take `CCN(CC(=O)NC1CCS(=O)(=O)C1)C(=O)/C=C/c1cccs1` (stereo unspecified): the cell number change was -4.88%. Also, under setting [1], the AC50 is 0.731 µM [rising, single point].
As to `O=C(Nc1nncs1)c1cccc(S(=O)(=O)N2CCCC2)c1`, the cell number change stood at 5.1%.
Same read-out and setting: then `Cc1ccccc1N1CCN(C(=O)c2cc(C3CC3)nn2-c2ccccc2)CC1`, with -14.8%.
In the case of `O=C(Nc1ccc(Cl)cc1)c1ccc2ncsc2c1`, the cell number change stood at 12%. Besides, the AC50 under setting [1] was 0.00461 µM [rising, full curve, poor fit]. Moreover, the AC50 under setting [2] was 20.6 µM [rising, single point].
Consider `CC(CC(=O)Nc1nc2ccccc2[nH]1)c1ccccc1` (stereo unspecified), for which the cell number change was -40.8%. Further, the AC50 under setting [2] was 1.84 µM [rising, partial curve].
On to `c1ccc2c(c1)[nH]c1c(N3CCCC3)ncnc12`, for which the cell number change is -13.4%.
`COc1ccc(C(C(=O)NC2CCCCC2)N(C(=O)CCl)c2ccc(Cl)cc2)cc1` (stereo unspecified): the cell number change came out at 3.84%. The AC50 under setting [2] is 16.4 µM [falling, partial curve, poor fit].
Take `Cc1cc(C(=O)NCCCC(=O)O)c(C)o1`: the cell number change is -13.6%. The AC50 under setting [2] was 23.1 µM [falling, single point].
On to `Cc1ccc(N/C=C(\[N+](=O)[O-])S(=O)(=O)c2ccccc2)cc1`, for which the cell number change is -42.6%. The AC50 under setting [1] is 29.1 µM [falling, single point]. Also, the AC50 under setting [2] was 29.1 µM [falling, single point].
In the case of `Cc1ccc(NS(=O)(=O)c2ccccc2)c2c1CC(C)(C)O2`, the cell number change is 55.5%.
Consider `NCCCCCc1nnc(SCc2ccc(Cl)cc2Cl)o1`, for which the cell number change amounted to 46.7%. The AC50 under setting [1] is 32.6 µM [rising, single point]. Under setting [2], the concentration at half-maximal activity (AC50) is 20.6 µM [rising, partial curve].
Regarding `O=C(Nc1ccc(SC(F)F)cc1)C1=CC=CN2CCS(=O)(=O)N=C12`, the cell number change was -16.9%. The AC50 under setting [2] was 1.3 µM [rising, full curve].
As for `Cc1ccccc1CNC(=O)CCCn1ncn2c(cc3occc32)c1=O`, the cell number change is -26.9%. For the same compound, under setting [2], the AC50 is 1.46 µM [rising, partial curve].
Consider `COc1ccccc1N(CC(=O)NC1CCCCC1)S(C)(=O)=O`, for which the cell number change stood at 41.2%. Moreover, under setting [1], the concentration at half-maximal activity (AC50) was 11.6 µM [rising, partial curve, poor fit]. Moreover, the AC50 under setting [2] was 2.06 µM [falling, full curve, poor fit].
As to `CCn1nc(C)cc1C(=O)N1CCCC(CCC(=O)NCc2ccccc2F)C1` (stereo unspecified), the cell number change was -40.9%. Moreover, under setting [1], the half-maximal activity concentration (AC50) is 18.4 µM [falling, partial curve]. For the same compound, the AC50 under setting [2] was 16.4 µM [falling, partial curve, poor fit].
As for `CCC(C)(C)NC(=O)C(c1ccccc1F)N(Cc1ccco1)C(=O)Cn1nnc2ccccc21` (stereo unspecified), the cell number change was -49.4%. Under setting [1], the AC50 was 3.66 µM [falling, partial curve]. Also, the AC50 under setting [2] is 0.13 µM [falling, full curve, poor fit].
`OC(CN1CCN(c2ccc(C(F)(F)F)cn2)CC1)c1ccccc1` (stereo unspecified): the cell number change is -30.2%. In addition, the half-maximal activity concentration (AC50) under setting [1] was 8.2 µM [falling, partial curve]. In addition, the AC50 under setting [2] is 8.2 µM [falling, partial curve, poor fit].
Regarding `Cc1cc(C)c(S(=O)(=O)Nc2ccc(O)cc2)c(C)c1`, the cell number change turned out to be 56.7%. In addition, the AC50 under setting [1] was 16.4 µM [rising, partial curve, poor fit].
For the compound `Cn1cc(CNCc2ccc(OC(F)(F)F)cc2)c(-c2ccc3c(c2)OCCO3)n1`, the cell number change is -57.7%. Also, the AC50 under setting [1] is 5.8 µM [falling, partial curve]. Under setting [2], the AC50 is 6.51 µM [falling, full curve].
Take `Cc1nc(N2CCN(C(=O)c3ccco3)CC2)c2c3c(sc2n1)CCC3`: the cell number change was -22%.
Turning to `COc1ccc(-c2nc(NC(=O)C3CC(=O)N(c4ccc5c(c4)OCCO5)C3)sc2C)cc1` (stereo unspecified), the cell number change was -18.5%. For the same compound, the concentration at half-maximal activity (AC50) under setting [2] was 29.1 µM [falling, single point].
With `COc1ccc(/C=C2\SC(=S)N(CCCC(=O)Nc3cccc(C(=O)O)c3)C2=O)cc1OC`, the cell number change came to 7.57%. In addition, the half-maximal activity concentration (AC50) under setting [2] is 4.61 µM [rising, single point].
With `COc1ccccc1NS(=O)(=O)c1ccc2oc(SCc3ccc(C#N)cc3)nc2c1`, the cell number change is -7.7%. Moreover, under setting [2], the AC50 is 3.66 µM [rising, single point].
For `CC(C)CC1C(C#N)=C(N)Oc2n[nH]c(-c3ccccc3)c21` (stereo unspecified), the cell number change is -31.6%. Besides, under setting [1], the half-maximal activity concentration (AC50) was 14.6 µM [falling, single point]. Besides, under setting [2], the AC50 was 13 µM [falling, partial curve].
`CCCN(CC1CC1)C(=O)COc1ccccc1C(=O)NCc1ccccc1`: the cell number change is 29.8%. Further, the half-maximal activity concentration (AC50) under setting [1] was 0.103 µM [rising, full curve, poor fit]. Under setting [2], the concentration at half-maximal activity (AC50) was 6.51 µM [rising, single point].
Consider `Cc1ccc(-c2csc3ncnc(N4CCN(C)CC4)c23)cc1C`, for which the cell number change is -0.777%.
Turning to `CC(C)N(C(=O)c1ccc(-c2ccccc2F)cc1)C(C)C`, the cell number change is -11.5%. The AC50 under setting [2] is 0.116 µM [falling, partial curve, poor fit].
Take `Cc1nn2c(NCCCN3CCOCC3)c3c(nc2c1-c1ccccc1)CCC3`: the cell number change is -17.2%. Besides, the AC50 under setting [2] was 5.8 µM [rising, full curve].
On to `CC(C)(C)NS(=O)(=O)c1ccc(CCC(=O)NCc2cccnc2)cc1`, for which the cell number change worked out at 55.1%. The AC50 under setting [1] is 32.6 µM [rising, single point]. Besides, the AC50 under setting [2] was 29.1 µM [rising, single point].
On to `NC(=S)N/N=C/c1ccc2c(c1)OCCO2`, for which the cell number change is 2.1%.
For the compound `N#CC1=C(N)NC(SCc2ccc(Cl)cc2)=C(C#N)C12CCCCC2`, the cell number change turned out to be 44.5%. Besides, under setting [1], the half-maximal activity concentration (AC50) was 2.31 µM [rising, full curve]. In addition, the concentration at half-maximal activity (AC50) under setting [2] was 6.51 µM [rising, single point].
Regarding `Cc1ccc(N2CN(S(=O)(=O)c3cccc([N+](=O)[O-])c3)c3nc4ccccc4nc32)cc1`, the cell number change came to 22.2%. Also, under setting [2], the half-maximal activity concentration (AC50) was 29.1 µM [rising, single point].
In the case of `Cc1ccc(OCC(=O)NCCCNC(=O)COc2ccc(C)cc2)cc1`, the cell number change turned out to be 4.97%. Further, the AC50 under setting [2] is 29.1 µM [falling, single point].
For the compound `CCOc1ccc(S(=O)(=O)NCCSc2ccccc2)cc1`, the cell number change came to 10.3%.

The values are drawn from PubChem BioAssay AID2685 (National Center for Advancing Translational Sciences (NCATS), 2010).
